Measurements reported in PubChem BioAssay AID720706 (Broad Institute, 2013).
Some of the results follow.

Assay: reduced GFP signal of wild-type E. coli, primary screen, bacterial rRNA inhibitor project, GFP/RFP fluorescence, OD600, single point (AID 720706)
Settings: E. coli WT GFP vs humanized-ribosome RFP mutants, 24 h; OD600 change: measured here: OD600 growth, DMSO median 0, no signal -100; RFP signal change: measured here: RFP humanized mutant strains, DMSO median 0, no signal -100, concentration not given here

Row | SMILES | OD600 change [%] | RFP signal change [%]
1 | CCOC(=O)N1CCC(Nc2ccc(F)cc2)CC1 | 7.02 | 9.65
2 | O=C(NCC1(N2CCCCC2)CCCCC1)c1ccc(F)cc1 | 11.1 | -3.21
3 | CCCCn1nnnc1C(c1cc2ccccc2o1)N1CCC(n2c(=O)[nH]c3ccccc32)CC1 (stereo not given) | -4.01 | 1.99
4 | O=P1(N(CCCl)CCCl)SCCCS1 | 11.3 | 1.86
5 | CCCCOc1ccc(C(=O)NCC2(N3CCOCC3)CCCCC2)cc1 | -1.04 | 0.225
6 | CC(C)(C)n1nnnc1C(c1ccccc1)N1CCC(n2c(=O)[nH]c3ccccc32)CC1 (stereo not given) | -21.9 | -4.56
7 | COc1cc(C(=O)NCC2(N(C)C)CCCCC2)ccc1OC(F)F | 5.69 | 1.36
8 | CCOC(=O)N1CCC(Nc2cccc(C)c2)CC1 | 0.87 | -3.59
9 | O=c1[nH]c2ccccc2n1C1CCN(C(c2cccc3ccccc23)c2nnnn2C2CCCC2)CC1 (stereo not given) | 11.6 | -0.992
10 | O=c1[nH]c2ccccc2n1C1CCN(C(c2ccccc2)c2nnnn2C2CCCCC2)CC1 (stereo not given) | 17 | -3.14
11 | Cc1cccc(NC2(C#N)CCN(Cc3ccccc3)CC2)c1 | 19.4 | 4.87
12 | CCC(c1nnnn1C1CCCC1)N1CCC(n2c(=O)[nH]c3ccccc32)CC1 (stereo not given) | -1.8 | 2.96
13 | COc1ccc(C(=O)NCC2(N3CCCCC3)CCCCC2)c(OC)c1OC | 5.95 | 0.705
14 | CC(C)(C)OC(=O)N1CCC(N(C(=O)c2ccccc2)c2ccc(F)cc2)CC1 | 0.025 | -0.235
15 | COc1ccc(C(=O)NCC2(N3CCCCC3)CCCCC2)cc1 | 6.19 | 5.84
16 | CCCCn1nnnc1C(c1cccs1)N1CCC(n2c(=O)[nH]c3ccccc32)CC1 (stereo not given) | -50.9 | -5.74
17 | CCCCn1nnnc1C(CC)N1CCC(n2c(=O)[nH]c3ccccc32)CC1 (stereo not given) | 4.01 | 7.25
18 | O=C(NCC1(N2CCCCC2)CCCCC1)c1cccs1 | 11.9 | 2.45
19 | O=C(NCC1(N2CCCCC2)CCCCC1)c1ccc(=O)[nH]c1 | 14.7 | 0.121
20 | COc1ccc(Cl)cc1C(=O)NCC1(N2CCOCC2)CCCCC1 | 1.91 | 2.17

Row | SMILES | OD600 change [%] | RFP signal change [%]
21 | O=C(OC1CN2CCC1CC2)C1c2ccccc2Oc2ccccc21 (stereo not given) | 1.59 | 3.69
22 | O=c1[nH]c2ccccc2n1C1CCN(C(c2cc3ccccc3o2)c2nnnn2C2CCCCC2)CC1 (stereo not given) | 34 | 1.81
23 | O=C(NCC1(N2CCCCC2)CCCCC1)c1ccc(Cl)s1 | 10 | 14.2
24 | N#CC1(Nc2ccccc2)CCN(Cc2ccccc2)CC1 | 9.7 | 0.445
25 | CCCCn1nnnc1C(c1ccc(OC)cc1)N1CCC(n2c(=O)[nH]c3ccccc32)CC1 (stereo not given) | -12.6 | 1.77
26 | CCOC(=O)N1CCC(Nc2ccc(OC)cc2)CC1 | 10.8 | -1.33
27 | Cc1cc(C)cc(N(C(=O)c2ccccc2)C2CCN(C(=O)OC(C)(C)C)CC2)c1 | -3.81 | 0.898
28 | O=c1[nH]c2ccccc2n1C1CCN(C(c2ccccc2OC(F)(F)F)c2nnnn2C2CCCCC2)CC1 (stereo not given) | 11.2 | 0.712
29 | O=C(NCC1(N2CCCCC2)CCCCC1)c1ccc(Cl)nc1 | -0.36 | 11.5
30 | CCC(c1nnnn1C(C)(C)C)N1CCC(n2c(=O)[nH]c3ccccc32)CC1 (stereo not given) | 16.5 | 4.24
31 | O=C(NCC1(N2CCOCC2)CCCCC1)c1cc(F)c(F)cc1Cl | 15.1 | 2.91
32 | COc1cc(OC)c(C(=O)NCC2(N(C)C)CCCCC2)cc1OC | 11.9 | 0.188
33 | CCCCn1nnnc1C(c1ccnc2ccccc12)N1CCC(n2c(=O)[nH]c3ccccc32)CC1 (stereo not given) | -14.1 | -1.38
34 | CC(C)c1ccc(NC2CCN(C(=O)OC(C)(C)C)CC2)cc1 | 1.31 | -5.03
35 | CN(C)c1cccc(C(=O)NCC2(N3CCCCC3)CCCCC2)c1 | 6.98 | -0.71
36 | COc1ccc(CN(CCCl)CCCl)cc1Cl | 11.5 | 9.12
37 | COc1ccc(C(c2nnnn2C2CCCC2)N2CCC(n3c(=O)[nH]c4ccccc43)CC2)cc1 (stereo not given) | -14.2 | -0.43
38 | CCCOc1ccc(C(=O)NCC2(N(C)C)CCCCC2)cc1OC | 8.44 | -1.93
39 | Cc1ccc(C(=O)NCC2(N(C)C)CCCCC2)o1 | 9.57 | 3.73
40 | O=C(NCC1(N2CCCCC2)CCCCC1)c1cncc(Br)c1 | 1.15 | 1.21

Row | SMILES | OD600 change [%] | RFP signal change [%]
41 | CN1CCC(Nc2cccc(F)c2)CC1 | 15 | -9.59
42 | O=c1[nH]c2ccccc2n1C1CCN(C(c2ccccc2OC(F)(F)F)c2nnnn2C2CCCC2)CC1 (stereo not given) | 32.8 | 0.475
43 | CCN1CCC(Nc2ccc(Cl)cc2)CC1 | 15.4 | 13.2
44 | O=C(NCC1(N2CCCCC2)CCCCC1)c1cccc([N+](=O)[O-])c1 | 18.6 | 1.86
45 | CSc1ccc(C(=O)NCC2(N3CCOCC3)CCCCC2)cc1 | 7.49 | 0.145
46 | CC(C)(C)n1nnnc1C(c1ccccc1OC(F)(F)F)N1CCC(n2c(=O)[nH]c3ccccc32)CC1 (stereo not given) | 7.99 | -0.306
47 | COc1cc(C(=O)NCC2(N3CCCCC3)CCCCC2)ccc1OC(F)F | 16.4 | 1.25
48 | CCCCn1nnnc1C(c1cccc2ccccc12)N1CCC(n2c(=O)[nH]c3ccccc32)CC1 (stereo not given) | 1.48 | -2
49 | CN1CCN(CCOC(=O)C(O)(c2ccccc2)c2ccccc2)CC1 | 6.75 | -1.71
50 | COc1ccc(NC2CCN(C(=O)OC(C)(C)C)CC2)cc1 | 0.086 | -2.96
51 | CC(C)c1ccc(C(=O)NCC2(N3CCOCC3)CCCCC2)cc1 | -2.78 | 0.757
52 | O=C(NCC1(N2CCCCC2)CCCCC1)c1cccc(C(F)(F)F)c1 | -3.41 | 0.584
53 | N#Cc1ccc(C(=O)NCC2(N3CCCCC3)CCCCC2)cc1 | 10.9 | 6.4
54 | CC(C)(C)OC(=O)N1CCC(N(C(=O)c2ccccc2)c2ccc(Cl)cc2)CC1 | 3.31 | -2.45
55 | CC(C)(C)n1nnnc1C(c1cccc2ccccc12)N1CCC(n2c(=O)[nH]c3ccccc32)CC1 (stereo not given) | 8.13 | 1.19
56 | CN(C)C1(CNC(=O)c2cccc(C#N)c2)CCCCC1 | 12.3 | -0.466
57 | O=c1[nH]c2ccccc2n1C1CCN(C(c2ccccc2)c2nnnn2C2CCCC2)CC1 (stereo not given) | -23.3 | -10.6
58 | CCCN1CCC(Nc2cc(OC)cc(OC)c2)CC1 | 11.8 | 23.3
59 | Cc1cc(N(CCCl)CCCl)ccc1C=O | -3.42 | 4.16
60 | C/C(N)=N\P(=O)(Oc1ccccc1)Oc1ccccc1 | 1.58 | 4.08
